Measurements published in patent publication US20050192264A1, “Slow release steroid composition” (priority 2004, published 2005).
At least one structure is not confirmed: it was looked up by name or label, or the drawing left a doubt.

Key:
Format in all cases: physicochemical
[1] = Simulated eye diffusion apparatus (1% HA gel); details: 4 mg Farmabios TA in 1% HA gel, 37° C., two weeks
[2] = Particle size distribution by laser light scattering (Malvern Mastersizer S); details: for D(v, 0.9): no sonication, suspended in 0.25% Tween 20, 0.25% NaCMC
[3] = USP2 apparatus dissolution in saline at 37° C.
[4] = Scanning electron microscopy of TA crystals; details: magnification 160×; listed as non-micronised triamcinolone acetonide from NewChem
[5] = Initial dissolution studies in acetonitrile/water
[6] = Particle size analysis, Malvern Laser Scattering method (Example 2)
[7] = Flow-through dissolution of TA samples in 20% methanol in water; details: for % Dissolved / Cumulative % Dissolved / Average Absorbance: 20% methanol in water, 11 mL/min; for Average Absorbance: 238 nm
Procedure: Samples were prepared by dispensing 10 mg of sample into 10 mL of a balanced salt solution comprising 1% Tween 80. The sample in solution was then subjected to vigorous shaking and a number of rapid expulsions through a 22 gauge needle. 2 mL of this suspension was then filtered through a […] Durapore membrane filter which retained essentially all of the particles. The filter is then rinsed with 2 mL water.
This method of sample preparation avoids the problem of particles formed of large agglomerations of crystals which appear to dissolve as large crystals and therefore bias results.
Dissolution was performed using a flow through system that pumps a degassed solvent solution of 20% methanol in water through the dissolution chamber at around 11 mL per minute. This flow rate maintained sink conditions wherein a large surplus of solvent/absorbant/carrier capacity is maintained throughout the experiment. The combination of flow rate and solvent solution dissolves the TA crystals at a rate that enables a flow-through cell to record absorbance values in the acceptable range for virtually all of the 30 minute run time and for the experiment to be completed in a reasonable period.
The solubility of TA in the solvent solution is approximately 2-3 times that of TA in water alone.
Approximately 2 mg of sample was prepared on a filter as outlined above. The filter was then placed in a modified stainless steel swinnex adaptor that was used as the dissolution chamber. The effluent from the dissolution chamber was passed through a low volume flow-through cell in a Hitachi 1001 spectrophotometer with the wavelength set at 238 nm. The absorbance was recorded on a chart recorder with 2 absorbance units causing 100% pen deflection.
Dissolution studies were carried out for a period of 30 minutes with a flow rate of 11 mL per minute. Average absorbance values over 2 minute periods were calculated. The experiment was done in duplicate and the two absorbance values for each sample period were averaged.

[8] = period 1 of 2 min each (=2 min)
[9] = period 2 of 2 min each (=4 min)
[10] = period 3 of 2 min each (=6 min)
[11] = period 4 of 2 min each (=8 min)
[12] = period 5 of 2 min each (=10 min)
[13] = period 5 of 2 min each (=10 min), listed as Chinese Sample
[14] = period 6 of 2 min each (=12 min)
[15] = period 7 of 2 min each (=14 min)
[16] = period 8 of 2 min each (=16 min)
[17] = period 9 of 2 min each (=18 min)
[18] = period 10 of 2 min each (=20 min)
[19] = period 10 of 2 min each (=20 min), listed as Chinese Sample
[20] = period 11 of 2 min each (=22 min)
[21] = period 12 of 2 min each (=24 min)
[22] = period 13 of 2 min each (=26 min)
[23] = period 14 of 2 min each (=28 min)
[24] = period 15 of 2 min each (=30 min)

CC1(C)O[C@@H]2C[C@H]3[C@@H]4CCC5=CC(=O)C=C[C@]5(C)[C@@]4(F)[C@@H](O)C[C@]3(C)[C@]2(C(=O)CO)O1 [Farmabios (micronised), triamcinolone acetonide]
appearance in the receptor solution (cumulative release) [1]: more rapidly than the non-micronised TA | D(v, 0.9) [2]: 17 μm

CC1(C)O[C@@H]2C[C@H]3[C@@H]4CCC5=CC(=O)C=C[C@]5(C)[C@@]4(F)[C@@H](O)C[C@]3(C)[C@]2(C(=O)CO)O1 [NewChem (non-micronised), triamcinolone acetonide]
dissolution behaviour compared between sources [3]: behaved in an identical fashion to the non-micronised TA sourced from Farmabios | D(v, 0.9%) ([2]; fractions from sedimentation of NewChem TA in 1 metre column, listed as Unfractionated): 324 μm | D(v, 0.9) [2]: 324 μm | crystal size, long (electron micrograph) [4]: 200-500 μm

CC1(C)O[C@@H]2C[C@H]3[C@@H]4CCC5=CC(=O)C=C[C@]5(C)[C@@]4(F)[C@@H](O)C[C@]3(C)[C@]2(C(=O)CO)O1 [Chinese sample, triamcinolone acetonide]
Triamcinolone mg Dissolved ([5]; Acetonitrile Conc (w/v) 0.0%, 30 min): 2.26 mg | Triamcinolone mg Dissolved ([5]; Acetonitrile Conc (w/v) 0.0%, 60 min): 6.13 mg | Triamcinolone mg Dissolved ([5]; Acetonitrile Conc (w/v) 0.0%, 120 min): 8.78 mg | Triamcinolone mg Dissolved ([5]; Acetonitrile Conc (w/v) 0.0%, 180 min): 11.44 mg | Triamcinolone mg Dissolved ([5]; Acetonitrile Conc (w/v) 5.0%, 30 min): 5.19 mg | Triamcinolone mg Dissolved ([5]; Acetonitrile Conc (w/v) 5.0%, 60 min): 7.37 mg | Triamcinolone mg Dissolved ([5]; Acetonitrile Conc (w/v) 5.0%, 120 min): 10.44 mg | Triamcinolone mg Dissolved ([5]; Acetonitrile Conc (w/v) 5.0%, 180 min): 11.35 mg | Triamcinolone mg Dissolved ([5]; Acetonitrile Conc (w/v) 12.5%, 30 min): 24.63 mg | Triamcinolone mg Dissolved ([5]; Acetonitrile Conc (w/v) 12.5%, 60 min): 28.84 mg | Triamcinolone mg Dissolved ([5]; Acetonitrile Conc (w/v) 12.5%, 120 min): 32.03 mg | Triamcinolone mg Dissolved ([5]; Acetonitrile Conc (w/v) 12.5%, 240 min): 34.71 mg | Triamcinolone mg Dissolved ([5]; Acetonitrile Conc (w/v) 15%, 15 min): 23.83 mg | Triamcinolone mg Dissolved ([5]; Acetonitrile Conc (w/v) 15%, 30 min): 29.85 mg | Triamcinolone mg Dissolved ([5]; Acetonitrile Conc (w/v) 15%, 60 min): 36.44 mg | Triamcinolone mg Dissolved ([5]; Acetonitrile Conc (w/v) 15%, 120 min): 40.42 mg | Triamcinolone mg Dissolved ([5]; Acetonitrile Conc (w/v) 15%, 240 min): 43.25 mg | Triamcinolone mg Dissolved ([5]; Acetonitrile Conc (w/v) 20%, 10 min): 24.20 mg | Triamcinolone mg Dissolved ([5]; Acetonitrile Conc (w/v) 20%, 30 min): 36.08 mg | Triamcinolone mg Dissolved ([5]; Acetonitrile Conc (w/v) 20%, 60 min): 41.73 mg | Triamcinolone mg Dissolved ([5]; Acetonitrile Conc (w/v) 20%, 120 min): 44.87 mg | Triamcinolone mg Dissolved ([5]; Acetonitrile Conc (w/v) 20%, 240 min): 46.19 mg | Triamcinolone mg Dissolved ([5]; Acetonitrile Conc (w/v) 30%, 10 min): 48 mg | mean particle size [6]: 11.48 μm | sum of the absorbance values (Average Absorbance column) ([7]; all 15 periods, 30 minute run): 2.222 | amount of TA dissolved over this period ([7]; calculated from absorbance and fluid volume using an E1% of 350, about 2 mg applied): 1.40 mg | average of the absorbance values ([7]; over the 15 periods, 30 minute run): 0.148 | % Dissolved [7, 8]: 53.9% | Cumulative % Dissolved [7, 8]: 53.9% | Average Absorbance [7, 8]: 1.2 | % Dissolved [7, 9]: 17.0% | Cumulative % Dissolved [7, 9]: 70.9% | Average Absorbance [7, 9]: 0.378 | % Dissolved [7, 10]: 8.8% | Cumulative % Dissolved [7, 10]: 79.7% | Average Absorbance [7, 10]: 0.195 | % Dissolved [7, 11]: 5.7% | Cumulative % Dissolved [7, 11]: 85.4% | Average Absorbance [7, 11]: 0.126 | Cumulative % Dissolved [7, 12]: 89.0% | Average Absorbance [7, 12]: 0.081 | % Dissolved [7, 13]: 3.6% | Cumulative % Dissolved [7, 13]: 89.0% | % Dissolved [7, 14]: 2.7% | Cumulative % Dissolved [7, 14]: 91.7% | Average Absorbance [7, 14]: 0.059 | % Dissolved [7, 15]: 1.9% | Cumulative % Dissolved [7, 15]: 93.6% | Average Absorbance [7, 15]: 0.042 | % Dissolved [7, 16]: 1.5% | Cumulative % Dissolved [7, 16]: 95.1% | Average Absorbance [7, 16]: 0.033 | % Dissolved [7, 17]: 1.2% | Cumulative % Dissolved [7, 17]: 96.3% | Average Absorbance [7, 17]: 0.027 | Cumulative % Dissolved [7, 18]: 97.3% | Average Absorbance [7, 18]: 0.022 | % Dissolved [7, 19]: 1.0% | Cumulative % Dissolved [7, 19]: 97.3% | % Dissolved [7, 20]: 0.8% | Cumulative % Dissolved [7, 20]: 98.1% | Average Absorbance [7, 20]: 0.018 | % Dissolved [7, 21]: 0.7% | Cumulative % Dissolved [7, 21]: 98.8% | Average Absorbance [7, 21]: 0.014 | % Dissolved [7, 22]: 0.5% | Cumulative % Dissolved [7, 22]: 99.3% | Average Absorbance [7, 22]: 0.011 | % Dissolved [7, 23]: 0.4% | Cumulative % Dissolved [7, 23]: 99.7% | Average Absorbance [7, 23]: 0.009 | % Dissolved [7, 24]: 0.3% | Cumulative % Dissolved [7, 24]: 100% | Average Absorbance [7, 24]: 0.007
